Measurements published in PMC8494922.
Results are given in words; binding and its absence hold for the method and conditions named. In cells and extracts the contact can be indirect. Binding calls can cover weak binding; strength is not graded here.

Sequences of proteins named here, by UniProt entry; tags and fusion partners are left off. A change or cut given only in a name is not applied to a line headed by its entry.
UniProt Q8R4B8: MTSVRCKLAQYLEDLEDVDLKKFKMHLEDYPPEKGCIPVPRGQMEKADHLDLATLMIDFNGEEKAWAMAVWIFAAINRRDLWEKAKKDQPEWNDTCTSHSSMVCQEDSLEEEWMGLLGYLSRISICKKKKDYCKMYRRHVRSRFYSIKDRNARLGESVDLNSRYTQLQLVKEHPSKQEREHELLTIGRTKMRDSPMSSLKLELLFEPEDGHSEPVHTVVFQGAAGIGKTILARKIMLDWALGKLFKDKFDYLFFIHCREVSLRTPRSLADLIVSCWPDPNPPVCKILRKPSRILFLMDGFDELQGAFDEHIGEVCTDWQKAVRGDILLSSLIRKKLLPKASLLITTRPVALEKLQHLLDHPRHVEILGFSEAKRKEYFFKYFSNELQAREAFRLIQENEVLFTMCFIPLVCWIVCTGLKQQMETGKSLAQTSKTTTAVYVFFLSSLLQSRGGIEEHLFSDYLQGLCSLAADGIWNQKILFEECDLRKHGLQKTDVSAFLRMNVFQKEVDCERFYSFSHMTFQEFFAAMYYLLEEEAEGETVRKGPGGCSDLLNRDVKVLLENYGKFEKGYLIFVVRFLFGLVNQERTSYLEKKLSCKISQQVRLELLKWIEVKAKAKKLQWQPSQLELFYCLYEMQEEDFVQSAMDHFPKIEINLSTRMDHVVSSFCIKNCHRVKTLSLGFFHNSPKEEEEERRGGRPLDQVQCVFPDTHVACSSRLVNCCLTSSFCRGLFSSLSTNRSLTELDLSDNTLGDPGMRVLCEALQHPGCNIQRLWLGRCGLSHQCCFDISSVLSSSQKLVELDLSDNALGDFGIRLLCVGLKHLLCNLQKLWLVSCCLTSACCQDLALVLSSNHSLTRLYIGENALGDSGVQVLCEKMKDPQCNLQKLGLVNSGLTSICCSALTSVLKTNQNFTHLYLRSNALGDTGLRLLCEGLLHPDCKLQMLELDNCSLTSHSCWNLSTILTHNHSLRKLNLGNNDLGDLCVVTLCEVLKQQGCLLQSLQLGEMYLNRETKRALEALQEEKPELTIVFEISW

Biological target: T1, VSV-SGT1 (UniProt Q9Y2Z0)
T1 sequence: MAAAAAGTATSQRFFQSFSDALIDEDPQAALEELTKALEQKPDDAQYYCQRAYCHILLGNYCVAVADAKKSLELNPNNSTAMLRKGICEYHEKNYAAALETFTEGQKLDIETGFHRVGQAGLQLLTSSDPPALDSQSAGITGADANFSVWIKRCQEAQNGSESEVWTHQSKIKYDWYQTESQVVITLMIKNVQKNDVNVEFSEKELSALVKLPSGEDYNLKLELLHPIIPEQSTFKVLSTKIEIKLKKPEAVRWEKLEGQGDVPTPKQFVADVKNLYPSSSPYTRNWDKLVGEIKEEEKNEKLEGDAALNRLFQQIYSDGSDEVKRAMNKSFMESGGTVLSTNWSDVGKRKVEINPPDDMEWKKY
Assay: co-IP; anti-VSV (P5D4) IP from 293T transfected with VSV-SGT1 and pcDNA3-NLRP3 mutants, 24 h; 1% NP-40 lysis buffer

| Substance | binding |
| --- | --- |
| NLRP3 S803A (pcDNA3-NLRP3, ectopically expressed in 293T) (from UniProt Q8R4B8) | binds |
| NLRP3 S803D (pcDNA3-NLRP3, ectopically expressed in 293T) (from UniProt Q8R4B8) | binds |
| NLRP3 S803E (pcDNA3-NLRP3, ectopically expressed in 293T) (from UniProt Q8R4B8) | binds |
